Test results reported in the M2OR odorant receptor database.
This is a selection; strong and weak results do not stand in their true shares. The calls were merged from several studies; some rest on single wells. This is one part of the list.

Experiments:
Conditions in all cases: stereoisomer not certain
OR5T1 (Homo sapiens) = molecular target: T1, OR5T1 (Homo sapiens) (UniProt Q8NG75)
T1 sequence (whole entry): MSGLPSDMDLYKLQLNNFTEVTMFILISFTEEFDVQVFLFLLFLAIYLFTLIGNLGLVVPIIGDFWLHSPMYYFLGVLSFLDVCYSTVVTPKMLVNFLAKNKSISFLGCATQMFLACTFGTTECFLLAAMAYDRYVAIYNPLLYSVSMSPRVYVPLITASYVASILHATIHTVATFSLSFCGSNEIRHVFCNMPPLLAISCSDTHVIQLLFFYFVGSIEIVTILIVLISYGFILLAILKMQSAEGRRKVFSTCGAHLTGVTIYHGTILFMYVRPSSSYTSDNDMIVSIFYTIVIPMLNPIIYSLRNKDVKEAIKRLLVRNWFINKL
In short: (§1)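 Transient luciferase assays in mammalian cell lines were common, though methods varied by source. The values come from published papers and their supplementary material, with extra details from the original authors when needed. Responsive refers to a measured signal the original authors judged statistically different from baseline, and non-responsive (inactive) to the remainder.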

OR5T1 = test system: T2, OR5T1
T2 sequence (whole entry): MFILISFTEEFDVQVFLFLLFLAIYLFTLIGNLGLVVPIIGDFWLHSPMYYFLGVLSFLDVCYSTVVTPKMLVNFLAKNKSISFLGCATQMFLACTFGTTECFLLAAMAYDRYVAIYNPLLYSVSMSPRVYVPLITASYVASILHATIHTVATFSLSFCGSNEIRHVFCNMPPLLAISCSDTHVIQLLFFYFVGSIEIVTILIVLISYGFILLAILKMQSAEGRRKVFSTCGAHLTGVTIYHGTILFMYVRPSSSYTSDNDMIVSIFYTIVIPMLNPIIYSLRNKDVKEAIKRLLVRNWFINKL
In short: as §1

OR5T2 (Homo sapiens) = OR5T2 (Homo sapiens) (UniProt Q8NGG2)
In short: as §1

OR5T2 [1] = test system: T3, OR5T2
T3 sequence (whole entry): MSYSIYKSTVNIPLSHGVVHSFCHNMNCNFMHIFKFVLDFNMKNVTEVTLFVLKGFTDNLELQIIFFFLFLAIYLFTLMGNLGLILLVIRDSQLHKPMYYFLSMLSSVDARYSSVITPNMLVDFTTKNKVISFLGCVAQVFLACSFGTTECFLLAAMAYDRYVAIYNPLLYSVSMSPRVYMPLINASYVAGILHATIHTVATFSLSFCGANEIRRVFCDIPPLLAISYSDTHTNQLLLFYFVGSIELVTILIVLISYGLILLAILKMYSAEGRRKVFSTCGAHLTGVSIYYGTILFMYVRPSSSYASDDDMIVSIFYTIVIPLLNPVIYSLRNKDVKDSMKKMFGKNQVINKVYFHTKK
In short: as §1

OR5T2 [2] = test system: T4, OR5T2; remark: listed apart in the source
T4 sequence (whole entry): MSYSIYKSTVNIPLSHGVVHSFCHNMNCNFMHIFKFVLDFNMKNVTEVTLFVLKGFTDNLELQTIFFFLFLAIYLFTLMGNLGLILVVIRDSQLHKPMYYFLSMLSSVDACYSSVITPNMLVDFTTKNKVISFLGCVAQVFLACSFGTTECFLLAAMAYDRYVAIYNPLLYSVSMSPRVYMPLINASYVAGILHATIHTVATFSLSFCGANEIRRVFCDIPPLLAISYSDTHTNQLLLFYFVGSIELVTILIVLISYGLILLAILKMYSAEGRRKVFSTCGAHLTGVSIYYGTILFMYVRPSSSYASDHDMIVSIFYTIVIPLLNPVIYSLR
In short: as §1

OR5T3 (Homo sapiens) = OR5T3 (Homo sapiens) (UniProt Q8NGG3)
In short: as §1

OR5T3 = test system: T5, OR5T3
T5 sequence (whole entry): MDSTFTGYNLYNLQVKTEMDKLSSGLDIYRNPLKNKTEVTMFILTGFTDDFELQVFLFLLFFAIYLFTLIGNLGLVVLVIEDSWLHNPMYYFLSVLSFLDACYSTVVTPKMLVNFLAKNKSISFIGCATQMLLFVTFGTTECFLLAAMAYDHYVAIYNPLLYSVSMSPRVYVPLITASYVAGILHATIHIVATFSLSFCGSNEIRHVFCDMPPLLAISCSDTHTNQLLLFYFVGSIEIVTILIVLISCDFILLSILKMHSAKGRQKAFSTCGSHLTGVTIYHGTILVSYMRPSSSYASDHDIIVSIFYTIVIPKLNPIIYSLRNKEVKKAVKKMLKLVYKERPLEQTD
In short: as §1

OR5V1 (Homo sapiens) = molecular target: T6, OR5V1 (Homo sapiens) (UniProt Q9UGF6)
T6 sequence (whole entry): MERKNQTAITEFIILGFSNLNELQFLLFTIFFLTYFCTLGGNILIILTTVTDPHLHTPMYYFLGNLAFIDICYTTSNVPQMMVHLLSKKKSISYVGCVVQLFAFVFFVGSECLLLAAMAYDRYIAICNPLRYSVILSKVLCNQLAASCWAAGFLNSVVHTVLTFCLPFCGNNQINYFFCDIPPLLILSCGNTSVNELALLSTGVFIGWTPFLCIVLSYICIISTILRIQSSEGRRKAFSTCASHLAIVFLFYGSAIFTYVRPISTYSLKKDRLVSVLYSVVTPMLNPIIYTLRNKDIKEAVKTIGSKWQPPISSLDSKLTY
In short: as §1

OR5W2 = test system: T7, OR5W2
T7 sequence (whole entry): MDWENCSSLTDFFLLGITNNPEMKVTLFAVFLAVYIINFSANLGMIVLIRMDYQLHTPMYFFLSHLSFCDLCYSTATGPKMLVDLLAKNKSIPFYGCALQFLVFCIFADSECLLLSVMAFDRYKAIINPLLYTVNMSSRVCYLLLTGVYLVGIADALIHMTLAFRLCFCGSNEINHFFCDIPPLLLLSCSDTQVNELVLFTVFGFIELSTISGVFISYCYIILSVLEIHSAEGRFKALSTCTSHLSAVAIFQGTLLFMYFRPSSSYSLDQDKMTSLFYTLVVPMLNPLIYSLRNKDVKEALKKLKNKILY
In short: as §1

OR6A2 (Homo sapiens) = molecular target: T8, OR6A2 (Homo sapiens) (UniProt O95222)
T8 sequence (whole entry): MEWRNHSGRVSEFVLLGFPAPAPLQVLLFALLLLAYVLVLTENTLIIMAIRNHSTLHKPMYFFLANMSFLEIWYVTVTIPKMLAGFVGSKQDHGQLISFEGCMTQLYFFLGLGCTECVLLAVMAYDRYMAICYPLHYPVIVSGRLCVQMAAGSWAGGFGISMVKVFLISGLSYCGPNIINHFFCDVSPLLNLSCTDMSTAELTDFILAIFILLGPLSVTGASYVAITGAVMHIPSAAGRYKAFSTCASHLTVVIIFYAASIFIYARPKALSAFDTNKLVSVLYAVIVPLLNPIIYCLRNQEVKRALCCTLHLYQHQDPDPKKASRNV
In short: as §1

OR6B1 (Homo sapiens) = OR6B1 (Homo sapiens) (UniProt O95007)
In short: as §1

OR6B1 = test system: T9, OR6B1
T9 sequence (whole entry): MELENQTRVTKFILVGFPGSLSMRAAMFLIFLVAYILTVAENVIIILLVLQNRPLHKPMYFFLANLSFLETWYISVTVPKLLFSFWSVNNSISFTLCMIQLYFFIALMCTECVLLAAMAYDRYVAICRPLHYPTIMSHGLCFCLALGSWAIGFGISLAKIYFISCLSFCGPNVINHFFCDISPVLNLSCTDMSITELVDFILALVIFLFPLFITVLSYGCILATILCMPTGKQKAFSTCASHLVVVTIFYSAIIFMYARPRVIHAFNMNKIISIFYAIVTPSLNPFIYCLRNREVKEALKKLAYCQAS
In short: as §1

OR6B2 (Homo sapiens) = OR6B2 (Homo sapiens) (UniProt Q6IFH4)
In short: as §1

OR6B2 = test system: T10, OR6B2
T10 sequence (whole entry): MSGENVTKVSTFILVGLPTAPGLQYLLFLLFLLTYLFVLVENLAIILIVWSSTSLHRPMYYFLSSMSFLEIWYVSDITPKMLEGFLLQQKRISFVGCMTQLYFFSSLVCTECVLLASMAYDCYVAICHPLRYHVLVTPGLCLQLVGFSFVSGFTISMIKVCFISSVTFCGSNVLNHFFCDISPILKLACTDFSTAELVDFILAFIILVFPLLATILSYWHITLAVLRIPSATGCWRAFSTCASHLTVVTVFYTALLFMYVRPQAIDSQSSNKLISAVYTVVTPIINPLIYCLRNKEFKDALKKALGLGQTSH
In short: as §1

OR6B3 (Homo sapiens) = OR6B3 (Homo sapiens) (UniProt Q8NGW1)
In short: as §1

OR6B3 = test system: T11, OR6B3
T11 sequence (whole entry): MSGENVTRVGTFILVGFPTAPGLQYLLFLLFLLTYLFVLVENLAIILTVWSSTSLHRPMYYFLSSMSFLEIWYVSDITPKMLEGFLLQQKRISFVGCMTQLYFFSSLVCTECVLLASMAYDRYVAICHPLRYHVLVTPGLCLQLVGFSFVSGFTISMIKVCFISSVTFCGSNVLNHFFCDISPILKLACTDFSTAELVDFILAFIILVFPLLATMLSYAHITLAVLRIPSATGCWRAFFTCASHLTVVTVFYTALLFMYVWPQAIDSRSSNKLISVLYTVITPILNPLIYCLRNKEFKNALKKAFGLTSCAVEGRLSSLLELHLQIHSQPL
In short: as §1

OR6C1 (Homo sapiens) = OR6C1 (Homo sapiens) (UniProt Q96RD1)
In short: as §1

OR6C1 = test system: T12, OR6C1
T12 sequence (whole entry): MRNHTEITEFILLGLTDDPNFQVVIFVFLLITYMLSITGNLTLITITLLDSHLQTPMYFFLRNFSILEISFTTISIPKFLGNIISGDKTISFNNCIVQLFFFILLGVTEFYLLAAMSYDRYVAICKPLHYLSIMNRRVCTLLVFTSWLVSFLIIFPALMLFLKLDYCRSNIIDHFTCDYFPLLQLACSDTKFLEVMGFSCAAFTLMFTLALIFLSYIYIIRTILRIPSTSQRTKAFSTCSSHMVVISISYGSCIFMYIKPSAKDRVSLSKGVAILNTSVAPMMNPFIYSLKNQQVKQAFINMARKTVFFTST
In short: as §1

OR6C2 (Homo sapiens) = molecular target: T13, OR6C2 (Homo sapiens) (UniProt Q9NZP2)
T13 sequence (whole entry): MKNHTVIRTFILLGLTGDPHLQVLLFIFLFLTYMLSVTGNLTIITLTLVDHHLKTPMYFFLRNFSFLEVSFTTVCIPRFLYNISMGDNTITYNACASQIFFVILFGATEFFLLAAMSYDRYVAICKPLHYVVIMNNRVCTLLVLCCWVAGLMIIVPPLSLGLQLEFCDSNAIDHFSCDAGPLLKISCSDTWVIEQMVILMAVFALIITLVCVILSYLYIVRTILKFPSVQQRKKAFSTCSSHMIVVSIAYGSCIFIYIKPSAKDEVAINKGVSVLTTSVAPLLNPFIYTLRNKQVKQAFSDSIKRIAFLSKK
In short: as §1

OR6C3 (Homo sapiens) = molecular target: T14, OR6C3 (Homo sapiens) (UniProt Q9NZP0)
T14 sequence (whole entry): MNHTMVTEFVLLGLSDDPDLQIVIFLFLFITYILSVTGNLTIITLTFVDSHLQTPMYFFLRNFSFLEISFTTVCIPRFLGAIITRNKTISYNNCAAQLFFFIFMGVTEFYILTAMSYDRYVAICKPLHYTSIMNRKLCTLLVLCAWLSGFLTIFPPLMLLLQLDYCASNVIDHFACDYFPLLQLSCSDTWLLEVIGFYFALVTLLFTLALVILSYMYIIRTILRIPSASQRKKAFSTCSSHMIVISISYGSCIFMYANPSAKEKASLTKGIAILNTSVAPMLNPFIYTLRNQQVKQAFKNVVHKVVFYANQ
In short: as §1
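Also: active if original authors judged signal statistically different from baseline.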

| SMILES | odorant receptor agonist call (OR5T1 (Homo sapiens)) | odorant receptor agonist call (OR5T1) | odorant receptor agonist call (OR5T2 (Homo sapiens)) | odorant receptor agonist call (OR5T2 [1]) | odorant receptor agonist call (OR5T2 [2]) | odorant receptor agonist call (OR5T3 (Homo sapiens)) | odorant receptor agonist call (OR5T3) | odorant receptor agonist call (OR5V1 (Homo sapiens)) | odorant receptor agonist call (OR5W2) | odorant receptor agonist call (OR6A2 (Homo sapiens)) | odorant receptor agonist call (OR6B1 (Homo sapiens)) | odorant receptor agonist call (OR6B1) | odorant receptor agonist call (OR6B2 (Homo sapiens)) | odorant receptor agonist call (OR6B2) | odorant receptor agonist call (OR6B3 (Homo sapiens)) | odorant receptor agonist call (OR6B3) | odorant receptor agonist call (OR6C1 (Homo sapiens)) | odorant receptor agonist call (OR6C1) | odorant receptor agonist call (OR6C2 (Homo sapiens)) | odorant receptor agonist call (OR6C3 (Homo sapiens)) |
| --- | --- | --- | --- | --- | --- | --- | --- | --- | --- | --- | --- | --- | --- | --- | --- | --- | --- | --- | --- | --- |
| CC12C=CCC1C1CCC3CC(=O)CCC3(C)C1CC2 (centres undefined) | inactive | inactive | inactive | inactive | inactive | inactive | inactive | inactive | inactive | inactive | inactive | active | inactive | inactive | inactive | inactive | inactive | inactive | inactive | inactive |
| CCCC(=O)O | inactive | inactive |  | inactive | inactive |  | inactive | inactive | inactive | inactive |  | inactive |  | inactive |  | inactive |  | inactive | inactive | inactive |
